# The list shows a part of the results.
# Molecular target: T1, OsSMF1 (Oryza sativa, UniProt Q6ZLB0 1-436)
# T1 sequence: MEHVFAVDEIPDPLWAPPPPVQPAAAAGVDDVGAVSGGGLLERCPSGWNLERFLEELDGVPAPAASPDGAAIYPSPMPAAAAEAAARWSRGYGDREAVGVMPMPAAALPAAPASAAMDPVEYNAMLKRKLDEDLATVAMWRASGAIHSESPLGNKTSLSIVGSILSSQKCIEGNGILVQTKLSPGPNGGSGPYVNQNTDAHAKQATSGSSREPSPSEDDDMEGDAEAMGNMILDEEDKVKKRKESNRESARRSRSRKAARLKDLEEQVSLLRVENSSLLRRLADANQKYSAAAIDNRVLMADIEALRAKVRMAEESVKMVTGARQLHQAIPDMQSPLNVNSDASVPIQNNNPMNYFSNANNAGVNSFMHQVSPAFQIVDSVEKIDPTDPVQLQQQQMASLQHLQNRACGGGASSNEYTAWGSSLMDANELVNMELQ
# Test: protein-binding microarray (RPBM); PBS, 2% BSA, 51.3 ng/ul salmon testes DNA, 50 uM zinc acetate, 200 nM TF, 25 C, 1 h; high values mean tight binding
# Conditions: protein: recombinant; tags: N-terminal polyhistidine and DsRed monomer fusion (pET32a); chain copies: 2; label: CyDye5-dUTP incorporated in the synthesized complementary strand; 3' TTTTT single-stranded linker to array surface; dsDNA, one strand shown
# Method in brief: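 The binding signal is fluorescence intensity per array feature (arbitrary units). Readings came from an Axon 4000B scanner after a washed, 2% BSA-blocked, double-stranded custom Agilent array had been incubated for 1 h at 25 °C with 200 nM protein and 50 µM zinc acetate. The protein was a Ni–NTA-purified transcription factor fused N-terminally to polyhistidine and DsRed, expressed in E. coli BL21-CodonPlus.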
row,Sequence,binding signal
1,ATGGCTTCAGGGGTGCAGCTGGTAAGAGAAGTGATGTCAGCGGAGTCACCTAGTGCAG,5570 fluorescence intensity (a.u.)
2,ATCGACCATCCACACGCACGCACTTATACAATTTGGTTTCCGGAGTCACCTAGTGCAG,3260 fluorescence intensity (a.u.)
3,TGGTCGGCACGGAGCGAGCCACTGGCTCCTGCCACCCGCGCGGAGTCACCTAGTGCAG,18000 fluorescence intensity (a.u.)
4,ACGCACCGGACCGTGCCGTGCCAGCCCACGTGCCGCACTCCGGAGTCACCTAGTGCAG,3980 fluorescence intensity (a.u.)
5,GGCAACGGCGTCAACATCTAGGGAAGGAGGGAGTAGTATACGGAGTCACCTAGTGCAG,29500 fluorescence intensity (a.u.)
6,GGTGGCGCCTACGTGGCTAGTTTGACTTGGTCTTCATCTACGGAGTCACCTAGTGCAG,16600 fluorescence intensity (a.u.)
7,GTCGCGTTGCAAGCCACCAGTCAGCAAGTCTGCTGTCACCCGGAGTCACCTAGTGCAG,3830 fluorescence intensity (a.u.)
8,AGGAGAGAAAATTATCATCCCACCCTGGCGCCTCCTCTCCCGGAGTCACCTAGTGCAG,5120 fluorescence intensity (a.u.)
9,TTGTTGAGTTCGGTGCCCCATATCCCTCAATCTCGGGTGCCGGAGTCACCTAGTGCAG,4530 fluorescence intensity (a.u.)
10,TCCAGCGGTGGTTGAACATGTCTTTTGTTGTGAATATTTACGGAGTCACCTAGTGCAG,3260 fluorescence intensity (a.u.)
11,GATGGAGGCGATGTAAACACAGATGACGCCGACGCCTGCCCGGAGTCACCTAGTGCAG,4730 fluorescence intensity (a.u.)
12,CACGGTGGTCCTGCCTTGTGCCACCATTGCAAGGGGCTCTCGGAGTCACCTAGTGCAG,3770 fluorescence intensity (a.u.)
13,CAATCTGCCACGCGTCATCGATCCGTCCCCTCTTCCGCTTCGGAGTCACCTAGTGCAG,19400 fluorescence intensity (a.u.)
14,CAAGTAATAAGTAGTAACCGGCTACGTGGTTGTGCCGTTACGGAGTCACCTAGTGCAG,4100 fluorescence intensity (a.u.)
15,AGTAGTGAGGTTGAGGCATAAGTACATTGAATTGAATTGACGGAGTCACCTAGTGCAG,44100 fluorescence intensity (a.u.)
16,ACTCGTCGAATTCTCCACACGCGTGAATTCATTTCACCACCGGAGTCACCTAGTGCAG,3350 fluorescence intensity (a.u.)
17,GTGCAGTACCTTCCATACCACCTCAAGGATACTAAAATCACGGAGTCACCTAGTGCAG,26400 fluorescence intensity (a.u.)
18,GCCCGCGACGTCACGCCCATGTCACTTTCGTGCAATGGTTCGGAGTCACCTAGTGCAG,8610 fluorescence intensity (a.u.)
19,CGAGGTTGCCCCTCCCCTCTCCTACGTGGTCGTGCCCCAACGGAGTCACCTAGTGCAG,5410 fluorescence intensity (a.u.)
20,CAATTTAAGACCGCTGTGTCACTAATGTAATCGATCAACTCGGAGTCACCTAGTGCAG,4990 fluorescence intensity (a.u.)
21,CCCCGCATAAACACTCTCACTGACGTGTGGGCCCCGCAGACGGAGTCACCTAGTGCAG,7980 fluorescence intensity (a.u.)

row,Sequence,binding signal
1,GTACCTCCACCTGTGCCGCCCGTTCGCAGCAACGCGGCGGCGGAGTCACCTAGTGCAG,27400 fluorescence intensity (a.u.)
2,AGGTGTACTTCTACGTGTACTACGTCGTTAAGGTCCTCGCCGGAGTCACCTAGTGCAG,34900 fluorescence intensity (a.u.)
3,TCGATCATACATATCGATCTGCAGCTAGTTCTCGCACGAGCGGAGTCACCTAGTGCAG,4120 fluorescence intensity (a.u.)
4,AGCGAAAGAATGTTTCAGTTCATTGCAACATTAGATCTATCGGAGTCACCTAGTGCAG,33700 fluorescence intensity (a.u.)
5,GCACACTCTAATTTCCTTTAGGCTGCGTTTCTAGTGTAGTCGGAGTCACCTAGTGCAG,28400 fluorescence intensity (a.u.)
6,TGTACATTGTTTGAACTAATCAGTAATCATCACAGTGGTTCGGAGTCACCTAGTGCAG,3160 fluorescence intensity (a.u.)
7,GTTAGCACTGGAATCTTTACGTGTGACATGTGTAAAAGTTCGGAGTCACCTAGTGCAG,3380 fluorescence intensity (a.u.)
8,GGAAACATGAGGGCGTGGGCGGCATATGGGAGATCGTGGGCGGAGTCACCTAGTGCAG,3160 fluorescence intensity (a.u.)
9,GGCGGGGCCGAAGCTGACGGGCTCCTCGCCGTCCTTCACGCGGAGTCACCTAGTGCAG,3330 fluorescence intensity (a.u.)
10,GGGCCCCTCCCAAATCTCCCATGGTTCCATCCATCCCCATCGGAGTCACCTAGTGCAG,3890 fluorescence intensity (a.u.)
11,CGGCGGCGGCGGGGTCGATGCGTGACGGCGGCGGCCGGCTCGGAGTCACCTAGTGCAG,17300 fluorescence intensity (a.u.)
12,CCCATGGAAGCTGGGGTGTTACGCATGATGATAGAGGTGTCGGAGTCACCTAGTGCAG,3880 fluorescence intensity (a.u.)
13,TTATTTCTACTGCCACGTAGGTGCCACGTCAACGCCACGTCGGAGTCACCTAGTGCAG,37400 fluorescence intensity (a.u.)
14,AATCATAAATTTGTGGGTGAACCTTCTACACACACGTCATCGGAGTCACCTAGTGCAG,11200 fluorescence intensity (a.u.)
15,ATTCGCCTCCGCCGCCCTTCTGGCCACGTCATCTTATTAACGGAGTCACCTAGTGCAG,11500 fluorescence intensity (a.u.)
16,GCATACCATGTCGATACGTGACGTATATCGAAGGGTAGAGCGGAGTCACCTAGTGCAG,5500 fluorescence intensity (a.u.)
17,CATTATCGTCGTCGTCGTCGTCGTAGTCATGTCGTGGGGCCGGAGTCACCTAGTGCAG,3820 fluorescence intensity (a.u.)
18,GTCGAATCGCACGCACACCTACTCGCGCATCTCATCCTGGCGGAGTCACCTAGTGCAG,27100 fluorescence intensity (a.u.)
19,CTTACAGTTTTATTACTCGTGCTGACGTAGATAATCTTATCGGAGTCACCTAGTGCAG,12600 fluorescence intensity (a.u.)
20,AGGCTGAGCGAATGTTTTGTTTGTTTTGCTCGTCAATTCTCGGAGTCACCTAGTGCAG,29400 fluorescence intensity (a.u.)
21,GGCAGCCATTCCCACCGCGCCACACGCGCCACACGCCCCGCGGAGTCACCTAGTGCAG,3240 fluorescence intensity (a.u.)

# Pulled one by one from above (2):
row,Sequence,binding signal
4,AGCGAAAGAATGTTTCAGTTCATTGCAACATTAGATCTATCGGAGTCACCTAGTGCAG,33700 fluorescence intensity (a.u.)
8,GGAAACATGAGGGCGTGGGCGGCATATGGGAGATCGTGGGCGGAGTCACCTAGTGCAG,3160 fluorescence intensity (a.u.)
